Laboratory results: PubChem BioAssay AID200 (DTP/NCI, 2004)
The list is a part of this screen's results and no random one: it is rich in T/C values a quarter to a half above the control, in often repeated tests (any T/C) and in doses without a T/C. Other doses and runs of a compound stand elsewhere. T/C is the treated group as % of the vehicle group. Some entries give survivors of the animals treated and no T/C: the source holds a T/C of zero for them, seemingly a mark for toxic or unscored doses. Some survivor counts are full or nearly so, which does not show that the dose was tolerated: survival well below the control is almost never listed, so the zero probably covers shortened survival too. Counts of survivors are from the toxicity check (mostly the fifth day) where no day follows; animals may have died later. Schedules are NCI's codes, taken here to give the interval after Q, in days (D) or hours (H), and the number of doses after X. Additions like (4×) say how often a value occurs here. Some entries hold several experiments; the values are given in rising order. Some molecules as drawn cover several salts, stereoisomers or complexes of the source; a dose is that of the sample tested. Where survival is the endpoint, this PubChem deposit counts one and a half times the control or more as active, and values a quarter to a half above the control carry no call in these data; other NCI protocols may use other cut-offs. Some T/C values carry the count of animals alive at the toxicity check (mostly the fifth day); without a count, all were alive then. *1 amine or outer side, *2 acyl side, *3 side chain or, on linkers, in order; H or OH if unused. Where a SMILES comes first, the peptide text is derived from it. Bridges are numbered along the chain shown (N, C = ends). [ ]: non-standard residue; d: D form. The star is where a group is joined. X5 = CC(C)C(C)C(C(=O)[*:2])N(C)[*:1]; Picolinoyl(3-OH) = O=C(c1ncccc1O)*; NMePhg = CN[CH](C(=O)O)c1ccccc1; Hyp = O=C(O)[CH]1C[CH](O)CN1; Sar = CNCC(=O)O

Tested on: B6C3F1 mice, B16 melanoma ip, median survival T/C
Assay: NCI In Vivo Anticancer Drug Screen. Data for tumor model B16 Melanoma (intraperitoneal) in B6C3F1 mice
Conditions: T/C endpoint: median survival time, higher T/C = longer survival
How it was run: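 Mice bearing transplanted tumor were dosed with compound or vehicle, and survival was recorded. Activity is expressed as the treated-group measurement (T) divided by the vehicle control measurement (C).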

[1] = dose: 0.75 mg/kg/injection, schedule: Q01DX009 (ip), vehicle: saline
[2] = dose: 6.25 mg/kg/injection, schedule: Q01DX009 (ip), vehicle: saline
[3] = dose: 12.5 mg/kg/injection, schedule: Q01DX009 (ip), vehicle: saline
[4] = dose: 25.0 mg/kg/injection, schedule: Q01DX009 (ip), vehicle: saline
[5] = dose: 50.0 mg/kg/injection, schedule: Q01DX009 (ip), vehicle: saline
[6] = dose: 200.0 mg/kg/injection, schedule: Q01DX009 (ip), vehicle: saline with Tween-80
[7] = dose: 400.0 mg/kg/injection, schedule: Q01DX009 (ip), vehicle: saline with Tween-80
[8] = dose: 100.0 mg/kg/injection, schedule: Q01DX009 (ip), vehicle: saline with Tween-80
[9] = dose: 400.0 mg/kg/injection, schedule: Q01DX009 (ip), vehicle: saline
[10] = dose: 200.0 mg/kg/injection, schedule: Q01DX009 (ip), vehicle: Klucel (hydroxypropylcellulose) (HPC)
[11] = dose: 25.0 mg/kg/injection, schedule: Q01DX009 (ip), vehicle: water
[12] = dose: 200.0 mg/kg/injection, schedule: Q01DX009 (ip), vehicle: saline
[13] = dose: 400.0 mg/kg/injection, schedule: Q01DX009 (ip), vehicle: Klucel (hydroxypropylcellulose) (HPC)

O=CC(O)C(O)C(O)C(O)C(=O)O.[NH-]C1CCCCC1[NH-].[Pt+2] (stereo unspecified)
T/C (dose: 0.38 mg/kg/injection, schedule: Q01DX009 (ip), vehicle: saline): 138 % of control
T/C [1]: 133 % of control
T/C (dose: 1.56 mg/kg/injection, schedule: Q01DX009 (ip), vehicle: saline, evaluated on day 45): 137 % of control
T/C (dose: 1.56 mg/kg/injection, schedule: Q01DX009 (ip), vehicle: saline, evaluated on day 60): 133 % of control
survivor count (dose: 3.12 mg/kg/injection, schedule: Q01DX009 (ip), vehicle: saline): 10 of 10
survivor count (dose: 3.13 mg/kg/injection, schedule: Q01DX009 (ip), vehicle: saline): 10 of 10
survivor count [2]: 10 of 10 (2×)
survivor count [3]: 10 of 10 (2×)
survivor count [4]: 8 of 10 and 10 of 10
survivor count [5]: 0 of 10 (2×)

COc1ccc2c(c1[N+](=O)[O-])CC[C@@H]1[C@@H]2CC[C@]2(C)C(=O)CC[C@@H]12
T/C [6]: 125 % of control
survivor count [7]: 10 of 10

O=C1NCC(Br)C(=O)N1 (stereo unspecified)
survivor count (dose: 50.0 mg/kg/injection, schedule: Q01DX009 (ip), vehicle: saline with Tween-80): 10 of 10
T/C [8]: 131 % of control
survivor count (dose: 200.0 mg/kg/injection, schedule: Q01DX009 (ip), vehicle: saline + Tween-80 + alcohol): 8 of 10
T/C [6]: 127 % of control
survivor count [6]: 7 of 10
survivor count (dose: 400.0 mg/kg/injection, schedule: Q01DX009 (ip), vehicle: saline + Tween-80 + alcohol): 2 of 10
survivor count [7]: 0 of 10 and 7 of 10

O=[n+]1c2ccccc2n([O-])c2cc(Cl)ccc21
survivor count [6]: 9 of 10
survivor count [7]: 1 of 10

CCCCCC#CC1OC12CCCCC2 (stereo unspecified)
survivor count [7]: 8 of 10
survivor count [9]: 8 of 10

[Cl][Pt+2][Cl].[NH-]c1ccccc1[NH-]
T/C (dose: 2.5 mg/kg/injection, schedule: Q01DX009 (ip), vehicle: saline with Tween-80): 138 % of control
survivor count (dose: 10.0 mg/kg/injection, schedule: Q01DX009 (ip), vehicle: saline with Tween-80): 10 of 10

Cc1ccc2c(ccc(CC(=S)[S-])[n+]2C)c1
survivor count (dose: 50.0 mg/kg/injection, schedule: Q01DX009 (ip), vehicle: Klucel (hydroxypropylcellulose) (HPC)): 10 of 10
survivor count (dose: 100.0 mg/kg/injection, schedule: Q01DX009 (ip), vehicle: Klucel (hydroxypropylcellulose) (HPC)): 10 of 10
survivor count [10]: 3 of 10 and 10 of 10

Nc1n[n+](-c2ccccc2)no1
T/C [11]: 136 % of control
survivor count (dose: 50.0 mg/kg/injection, schedule: Q01DX009 (ip), vehicle: water): 10 of 10
survivor count (dose: 100.0 mg/kg/injection, schedule: Q01DX009 (ip), vehicle: water): 0 of 10

CNC(=O)c1cccc2c(Nc3ccc(NS(C)(=O)=O)cc3OC)c3cccc(C)c3nc12
T/C (dose: 1.5 mg/kg/injection, schedule: Q01DX009 (ip), vehicle: water): 133 % of control [9 of 10 alive]
T/C (dose: 1.56 mg/kg/injection, schedule: Q01DX009 (ip), vehicle: water): 125 % of control
T/C (dose: 3.12 mg/kg/injection, schedule: Q01DX009 (ip), vehicle: water): 139 % of control
survivor count (dose: 6.0 mg/kg/injection, schedule: Q01DX009 (ip), vehicle: water): 10 of 10
survivor count (dose: 12.0 mg/kg/injection, schedule: Q01DX009 (ip), vehicle: water): 9 of 10
survivor count [11]: 6 of 10

CC(=O)OC1C(C)OC(OC(=O)C2CCC3C(C2)OC2(CC(OC(=O)/C=C/c4ccccc4)C(C)CO2)C32CO2)C(OC2OC(C)C(O)C(OC(C)=O)C2O)C1O (stereo unspecified)
T/C (dose: 6.0 mg/kg/injection, schedule: Q01DX009 (ip), vehicle: saline + alcohol): 131 % of control
T/C (dose: 8.0 mg/kg/injection, schedule: Q01DX009 (ip), vehicle: saline + Tween-80 + alcohol): 148 % of control

CC(=O)N(C)c1ccc(Nc2cc(C)[nH]c3ccc4ncnc4c23)cc1
T/C [2]: 132 and 149 % of control
T/C [3]: 144 % of control
T/C [4]: 139 % of control [9 of 10 alive]
T/C [5]: 149 % of control [9 of 10 alive]
survivor count (dose: 100.0 mg/kg/injection, schedule: Q01DX009 (ip), vehicle: saline): 9 of 10 and 10 of 10
survivor count [12]: 0 of 10

NC(=O)c1ccc[n+](Cc2c(Cl)cccc2Cl)c1
survivor count [1]: 10 of 10

O=C1c2ccccc2C(=O)c2c(NCCNCCO)ccc(NCCNCCO)c21
survivor count (dose: 32.0 mg/kg/injection, schedule: Q01DX009 (ip), vehicle: other): 2 of 10 and 10 of 10
survivor count (dose: 40.0 mg/kg/injection, schedule: Q01DX009 (ip), vehicle: water): 10 of 10
T/C (dose: 62.5 mg/kg/injection, schedule: Q01DX001 (ip), vehicle: saline): 147 % of control [9 of 10 alive]
survivor count (dose: 64.0 mg/kg/injection, schedule: Q01DX009 (ip), vehicle: other): 1 of 10
survivor count (dose: 64.0 mg/kg/injection, schedule: Q01DX009 (ip), vehicle: saline): 10 of 10
T/C (dose: 125.0 mg/kg/injection, schedule: Q01DX001 (ip), vehicle: saline): 138 and 145 % of control
survivor count (dose: 250.0 mg/kg/injection, schedule: Q01DX001 (ip), vehicle: saline): 6 of 10 and 10 of 10
survivor count (dose: 500.0 mg/kg/injection, schedule: Q01DX001 (ip), vehicle: saline): 2 of 10 and 10 of 10
survivor count (dose: 1000.0 mg/kg/injection, schedule: Q01DX001 (ip), vehicle: saline): 0 of 10 and 10 of 10

Brc1ccc(C[N+]23CN4CN(CN(C4)C2)C3)cc1
survivor count [7]: 0 of 10

COc1cc(NCCCCCCCNC(C)C)c2nccc(C)c2c1
survivor count [5]: 1 of 10

CC(C)(C)OC(=O)NC(CCCCNC(=O)C(F)(F)F)C(=O)ON1C(=O)CCC1=O (stereo unspecified)
survivor count [8]: 10 of 10
survivor count [6]: 10 of 10

CN(C)c1ccc2c(Nc3ccc(NS(C)(=O)=O)cc3)c3ccc(N(C)C)cc3nc2c1
survivor count (dose: 25.0 mg/kg/injection, schedule: Q01DX009 (ip), vehicle: Klucel (hydroxypropylcellulose) (HPC)): 10 of 10
survivor count [10]: 10 of 10
survivor count [13]: 10 of 10

Nc1nc2c(ncn2C2OC(CO)C(O)C2O)c(=O)[nH]1 (stereo unspecified)
T/C (dose: 150.0 mg/kg/injection, schedule: Q01DX009 (ip), vehicle: saline with Tween-80): 132 % of control
T/C (dose: 300.0 mg/kg/injection, schedule: Q01DX009 (ip), vehicle: saline with Tween-80): 132 % of control [9 of 10 alive]
T/C (dose: 600.0 mg/kg/injection, schedule: Q01DX009 (ip), vehicle: saline with Tween-80): 130 % of control [9 of 10 alive]

CC(C)CC1NC(=O)C(NC(=O)c2ncccc2O)C(C)OC(=O)C(c2ccccc2)N(C)C(=O)C(C)NC(=O)C(C(C)C(C)C)N(C)C(=O)CN(C)C(=O)C2CC(O)CN2C1=O (stereo unspecified) ({Picolinoyl(3-OH)}-TL[Hyp][Sar][X5]A[NMePhg]; ester 1-C; configuration not given here)
survivor count [13]: 0 of 10

O=C1N(CC2CO2)CCN1CC1CO1 (stereo unspecified)
T/C [5]: 145 % of control
survivor count [12]: 10 of 10
survivor count (dose: 200.0 mg/kg/injection, schedule: Q01DX009 (ip), vehicle: suspension in saline): 10 of 10
T/C [9]: 133 % of control

CC1CCC(n2cnc3c(Cl)ncnc32)O1 (stereo unspecified)
survivor count [13]: 6 of 10 and 10 of 10
